PubChem BioAssay AID493014 (National Center for Advancing Translational Sciences (NCATS), 2011)
Out of some 340,000 compounds screened, about 170 (0.05%) were called active. This list was built around the results that the source calls inconclusive (neither active nor inactive); the mix of calls is not that of the screen. Calls come from the whole dose curve; as a rule, active = well fitted inhibition curve with a large enough effect in the signal ratio, with a control signal flat (not every such curve was filed as active); inconclusive = small, poorly fitted or top-dose-only effect, or effect the other way, or a change in a side signal; inactive = flat fitted curve, though single readings scatter; the % refers to the signal ratio. Potencies beside an inconclusive call are fits to weak or partial responses and may not hold up.
Potency is the fitted concentration of half-maximal effect.

Test: qHTS Assay to Find Inhibitors of Chronic Active B-Cell Receptor Signaling;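 for activity change, negative = inhibition: plate controls were basal doxycycline-induced cells for no effect and cells given 10 µM MG132 for full effect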
Conditions: ABC-DLBCL IkBa-CBG/CBR reporter, luminescence ratio (green luciferase fused to IkBa over red control in TMD8 lymphoma cells), 4 h; activity change, negative = inhibition: at 46.1 µM (top of the series)
Outline: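 TMD8 ABC-DLBCL cells carrying doxycycline-inducible green luciferase fused to IkappaBalpha plus unfused red luciferase were exposed to compounds (up to 46 uM) for 4 hrs at 37C. Activity came from the overlap-corrected green/red luminescence ratio.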
For O=C(N/N=C/c1c(O)n(CCc2ccccc2)c(=O)[nH]c1=O)c1ccccc1O, the Potency was inconclusive: 7.94 µM [falling, partial curve].
For CC(C)=CCSc1nnc([C@@H](N)Cc2c[nH]c3ccccc23)o1, the activity change, negative = inhibition was inconclusive: 12.3%.
For COc1cccc(NP(=O)(Oc2ccccc2Cl)Oc2ccccc2Cl)c1, the activity change, negative = inhibition was inconclusive: -11.9%.
For COc1cc(OC)c(OC)cc1CCC(C)NCCC(c1ccccc1)c1ccccc1 (stereo not given), the activity change, negative = inhibition was inconclusive: -14.2%.
In the case of CCOC(=O)C1=C(O)/C(=C/c2ccc(-c3ccccc3C(=O)O)o2)SC1=Nc1ccc(C)cc1, the activity change, negative = inhibition is reported as inconclusive: -9.5%.
In the case of COC(=O)C1=C(c2ccc3ccccc3c2)C[C@@H]2CC[C@H]1N2C(=O)N1CCC(C)CC1, the activity change, negative = inhibition is reported as inconclusive: -0.11%.
In the case of COc1ccc(-n2c(/C=C/c3cccc(F)c3)nc3ccccc3c2=O)c(OC)c1, the activity change, negative = inhibition is reported as inconclusive: -0.217%.
With CN(C)C(=O)Oc1c(Cl)cc(Cl)c2ccccc12 the Potency was inconclusive: 1.84 µM [rising, partial curve, poor fit].
For NC(=O)c1ncn([C@@H]2O[C@H](CO)[C@@H](O)[C@H]2O)n1, the activity change, negative = inhibition was inconclusive: 3.26%.
With COc1ccc(-c2nn(CCC#N)cc2C(=O)Nc2ccc(C(C)=O)cc2)cc1 the Potency was inconclusive: 20 µM [falling, partial curve, poor fit].
For O=c1c2ccccc2nc(-c2ccco2)n1-c1ccccc1, the activity change, negative = inhibition was inconclusive: 10%.
For O=C1CC(c2cccnc2)=NN1c1ccc(Cl)cc1Cl, the activity change, negative = inhibition was “inactive”.
For CO[C@H]1C=C2CCN(C)[C@H]2C2c3cc4c(cc3C(=O)O[C@@H]21)OCO4 (stereo not given in full), the activity change, negative = inhibition was “inactive”.
For CCN(CC)S(=O)(=O)c1ccc(C)c(NCC(=O)Nc2ccc(C#N)c(Cl)c2)c1, the activity change, negative = inhibition was “inactive”.
In the case of O=C(Cc1ccccc1)N1CCN(Cc2ccc([N+](=O)[O-])cc2)CC1, the activity change, negative = inhibition is reported as “inactive”.
In the case of O=C(Nc1cccc(OC(=O)N2CCOCC2)c1)N1CCOCC1, the activity change, negative = inhibition is reported as “inactive”.
In the case of CC(C)Oc1ccc(C2C(C#N)=C(N)Oc3c2c(=O)oc2ccccc32)cc1 (stereo not given), the Potency is reported as inconclusive: 14.6 µM [falling, partial curve].
With COc1ccc(-n2c(O)c(C=NCCN(C)C)c(=O)[nH]c2=O)cc1 the activity change, negative = inhibition was “inactive”.
With CC(C)NS(=O)(=O)c1ccc(OCC(=O)N2CCN(Cc3ccc4c(c3)OCO4)CC2)c(Cl)c1 the activity change, negative = inhibition was “inactive”.
In the case of COc1cccc(-n2c(/C=C/c3ccc(O)c(O)c3)nc3ccccc3c2=O)c1, the Potency is reported as inconclusive: 10 µM [falling, partial curve].
With CC(C)c1ccc(OCC(=O)N2CCN(C)CC2)c(Br)c1 the activity change, negative = inhibition was inconclusive: 16.3%.
With O=c1[nH]c(=S)n(-c2cccc(Cl)c2)c(O)c1C=NCCN1CCNCC1 the activity change, negative = inhibition was inconclusive: -0.881%.
With CCOC(=O)c1cc(C(O)(C(=O)OC)C(F)(F)F)c(/N=C/N(C)C)o1 (stereo not given) the Potency was inconclusive: 32.6 µM [falling, partial curve, poor fit].
With Cc1ccc(OCC(=O)Nc2ccc3c(c2)CCC3)c([N+](=O)[O-])n1 the activity change, negative = inhibition was inconclusive: 3.99%.
In the case of CCNc1cc(N2CCN(C)CC2)ccc1[N+](=O)[O-], the Potency is reported as inconclusive: 28.2 µM [falling, partial curve, poor fit].
With O=C1CN=C(c2ccccc2Cl)c2cc(Cl)ccc2N1Cc1cccc(Cl)c1 the activity change, negative = inhibition was inconclusive: 13%.
In the case of NNC(=S)NCCc1ccccc1, the Potency is reported as inconclusive: 28.2 µM [falling, single point].
For O=C1CC(=O)N(c2cccc(F)c2)C(=O)N1, the Potency was inconclusive: 22.4 µM [falling, single point].
In the case of CC(=O)OC(C)(C)/C=C/C(=O)C(C)(O)C1[C@H](O)C[C@@]2(C)C3CC=C4C(CC[C@@H](O)C4(C)C)[C@]3(CO)C(=O)C[C@]12C (stereo not given in full), the Potency is reported as inconclusive: 12.6 µM [falling, partial curve, poor fit].
With C[C@]12CCC(=O)C=C1CC[C@@H]1[C@@H]2CC[C@]2(C)C(=O)CC[C@@H]12 the activity change, negative = inhibition was inconclusive: -12.3%.
For COc1ccc(-c2c[n+](CC(=O)OC3CC(C)CCC3C(C)C)c3n2CCC3)cc1 (stereo not given), the Potency was inconclusive: 4.47 µM [falling, partial curve, poor fit].
In the case of COC(=O)C1=C(c2ccccc2OCc2ccccc2)C[C@@H]2CC[C@H]1N2C(=O)NCc1ccc(OC)c(OC)c1, the activity change, negative = inhibition is reported as inconclusive: -11.9%.
For CN1CCN(C(=O)COc2ccc3ccccc3c2)CC1, the activity change, negative = inhibition was inconclusive: 2.8%.
With C/C=C(\C)C(=O)OC1C(C)=C2C(C1OC(=O)CCCCC)C(C)(OC(C)=O)CC(OC(=O)CCC)C1(O)C2OC(=O)C1(C)O (stereo not given) the activity change, negative = inhibition was inconclusive: -2.56%.
In the case of CCCCOc1ccc(CCN)cc1Cl, the activity change, negative = inhibition is reported as inconclusive: -12.8%.
In the case of CCn1c(=O)c2cc(C(=O)N(C)c3ccc(OC)cc3OC)sc2c2ccccc21, the activity change, negative = inhibition is reported as inconclusive: 0.0337%.
In the case of Cc1ccc2c(c1)C(c1ccccc1)=NCC(=O)N2, the Potency is reported as inconclusive: 15.8 µM [falling, single point].
In the case of COc1ccccc1N1C(=O)NC(=O)/C(=C\c2cnn(-c3ccccc3)c2)C1=O, the activity change, negative = inhibition is reported as inconclusive: 5.63%.
For CC(C)OCCCNC(=O)c1c(N)n(Cc2cccs2)c2nc3ccccc3nc12, the activity change, negative = inhibition was inconclusive: 12%.
For CN(C)CCNC(=O)c1cccn(Cc2cccc(C(F)(F)F)c2)c1=O, the Potency was inconclusive: 22.4 µM [falling, single point].
With O=c1oc2ccccc2c(O)c1C(c1ccccn1)c1c(O)c2ccccc2oc1=O the Potency was inconclusive: 11.2 µM [falling, partial curve, poor fit].
With NC1CCc2cc(O)c(O)cc2C1 (stereo not given) the activity change, negative = inhibition was “inactive”.
With Cc1ccc(Cn2nc(C)c(C=O)c2Cl)cc1 the activity change, negative = inhibition was “inactive”.
For CCOc1c(Cl)cc(CNC(C)C(O)c2ccccc2)cc1OC (stereo not given), the activity change, negative = inhibition was “inactive”.
With C=CCNC(=O)c1c(N)n(CCN2CCOCC2)c2nc3ccccc3nc12 the activity change, negative = inhibition was inconclusive: 3.28%.
In the case of O=C(O)CN1C(=O)CN=C(c2ccccn2)c2cc(Cl)ccc21, the activity change, negative = inhibition is reported as inconclusive: -1.07%.
With O=C(N/N=C/c1c(O)n(C2CC2)c(=S)[nH]c1=O)c1ccccc1 the Potency was inconclusive: 31.6 µM [rising, single point].
In the case of Nn1c(SCC(=O)Nc2ccc(F)cc2F)nnc1-c1cccnc1, the Potency is reported as inconclusive: 17.8 µM [falling, partial curve].
In the case of O=C(c1ccccc1)c1ccc(N=Nc2c(O)[nH]c(=O)[nH]c2=O)cc1, the activity change, negative = inhibition is reported as inconclusive: -0.18%.
In the case of CCC(C)NC(=O)c1c(N)n(CC2CCCO2)c2nc3ccccc3nc12 (stereo not given), the activity change, negative = inhibition is reported as inconclusive: 10.1%.
In the case of CCCCN1C(=O)NC(=O)C2(Cc3cc(C)ccc3N(C)C2)C1=O (stereo not given), the Potency is reported as inconclusive: 18.4 µM [rising, partial curve, poor fit].
In the case of CC[C@H](C)[C@@H](C(=O)N1CCCC1c1nccs1)N(C)C(=O)[C@H](CC(C)C)N(C)C(=O)[C@H](Cc1ccc(OC)cc1)N(C)C(=O)/C=C(\C)OC (stereo not given in full), the activity change, negative = inhibition is reported as inconclusive: -1.16%.
With COc1cc2c(cc1O)CC1c3c(cc(O)c(OC)c3-2)CCN1C (stereo not given) the Potency was inconclusive: 3.55 µM [falling, full curve, poor fit].
For Cc1cc(Cl)ccc1C(=O)C1CCCN(C2CCSCC2)C1 (stereo not given), the activity change, negative = inhibition was “inactive”.
With CNS(=O)(=O)c1ccc(N=Cc2c(O)n(-c3cccc(C)c3)c(=O)[nH]c2=O)cc1 the activity change, negative = inhibition was “inactive”.
In the case of CC12CCC3C(CC=C4CC(O)CCC43C)C1C/C(=C\c1ccccc1F)C2=O (stereo not given), the activity change, negative = inhibition is reported as “inactive”.
For Cc1ccc(-c2nc3ccccc3c(=O)n2-c2ccncc2)cc1, the activity change, negative = inhibition was inconclusive: 10%.
For O=C(Nc1ccc(N2CCOCC2)nc1)c1c(F)cccc1F, the Potency was inconclusive: 35.5 µM [rising, partial curve].
With COC(=O)c1cc(=O)n(Cc2cccs2)c(=Nc2ccc(F)cc2)s1 the activity change, negative = inhibition was inconclusive: -2.63%.
In the case of O=C(c1ccccc1F)c1cn(Cc2ccc(F)cc2)c2ccccc12, the activity change, negative = inhibition is reported as inconclusive: 1.37%.
With O=c1c2ccccc2nc(-c2ccccc2)n1-c1ccccc1O the activity change, negative = inhibition was inconclusive: -4.38%.
With CCCc1nc2ccccc2c(=O)n1/N=C/c1c(C)[nH]n(-c2ccc(C)cc2)c1=O the activity change, negative = inhibition was inconclusive: -4.34%.
In the case of COc1ccc(CCNC(C)CCc2ccc(OC)cc2)cc1 (stereo not given), the activity change, negative = inhibition is reported as inconclusive: -8.12%.
With C(=N\Nc1nc2ccccc2[nH]1)/c1cccc2nccnc12 the Potency was inconclusive: 7.08 µM [falling, partial curve, poor fit].
For CC(=O)Nc1ccc(C(=O)C(Cc2ccccc2)N(C)C)cc1 (stereo not given), the activity change, negative = inhibition was inconclusive: -1.96%.
In the case of CCCCn1c(O)c(/C(C)=N/NC(=O)Nc2ccccc2)c(=O)[nH]c1=O, the Potency is reported as inconclusive: 35.5 µM [falling, single point].
In the case of Cn1cc(C(=O)OCC(=O)N2CCCCC2)c2ccccc21, the Potency is reported as inconclusive: 29.1 µM [rising, single point].
With COc1ccc(-c2nc3ccccc3c(=O)o2)cc1 the Potency was inconclusive: 20 µM [falling, partial curve].
For COC(=O)C1=C(c2c(C)noc2C)C[C@@H]2CC[C@H]1N2C(=O)N1CCc2cc(OC)c(OC)cc2C1, the activity change, negative = inhibition was inconclusive: -9.84%.
For COc1ccc(OCC(=O)N2CCN(Cc3c[nH]c4ccccc34)CC2)cc1, the activity change, negative = inhibition was “inactive”.
In the case of CCCCCCN1CCN(c2ccc(Cl)cc2)CC1, the activity change, negative = inhibition is reported as inconclusive: 0.937%.
With Oc1ccc(Cl)c(Cl)c1Cl the activity change, negative = inhibition was inconclusive: 2.67%.
With COC(=O)C1=C(c2ccc(-c3ccccc3)c(F)c2)C[C@@H]2CC[C@H]1N2C(=O)NC(C)C the activity change, negative = inhibition was inconclusive: -2.66%.
In the case of CC(=O)[C@@]1(O)CC[C@H]2[C@@H]3CC=C4C[C@@H](O)CC[C@]4(C)[C@H]3CC[C@@]21C, the activity change, negative = inhibition is reported as inconclusive: -7.39%.
For COC(=O)C1=C(c2ccc(OCc3ccccc3)cc2)C[C@@H]2CC[C@H]1N2C(=O)NCCCc1ccccc1, the activity change, negative = inhibition was “inactive”.
